Values of other authors as cited in publication PMC8193821 (Annals of the New York Academy of Sciences, 2019).

System: Friedreich Ataxia patients’ iPSC-derived neurons
Conditions: hypothesis test; ref Codazzi F. et al. (2016) Hum Mol Genet

## Cc1ccc(C(=O)NCCCCCC(=O)Nc2ccccc2N)cc1 [HDAC inhibitor 109]
  FXN (frataxin): ↑FXN (frataxin)
